Source: patent US8378114B2, “N-2-(hetero)arylethylcarboxamide derivative, and pest-controlling agent comprising the same” (Nihon Nohyaku Co., Ltd., priority 2006, dated 2013)
Some entries share one result that the patent states for a list of compounds.

Columns and labels:
Type in all cases: in vivo
[1] = tested on: causal fungus of apple tree scab (Venturia inaequalis); assay: Test on the controlling efficacy against apple tree scab; conditions: apple seedling (Ohrin), foliar application, active ingredient 50 ppm, emulsion amount 50 mL, 14 days after inoculation
Description: A seedling of an apple tree (the variety: Ohrin) grown in a pot was subjected to foliar application with a diluted emulsion of the emulsifiable concentrate of the compound of the present invention prepared in accordance with Formulation Example 1, which diluted emulsion was produced by diluting the concentrate with water to the specifically determined volume. On the following day after the application, the seedling was inoculated by spraying with a spore suspension of the causal fungus of apple tree scab (Venturia inaequalis) as obtained by culture on the PSA medium and maintained at 20° C. under humid conditions. Fourteen days after the inoculation, the protective value (%) was determined in accordance with the equation (1), and the controlling efficacy was assessed according the below-described criteria of judgment. [formula]

[2] = tested on: causal fungus of barley powdery mildew (Blumeria graminis f. sp. hordei); assay: Test on the controlling efficacy against powdery mildew of barley plant; conditions: barley (Kantoh No. 6), foliar application, active ingredient 50 ppm, emulsion amount 50 mL, 7 days after inoculation
[3] = tested on: causal fungus of gray mold of cucumber plant (Botrytis cinerea); assay: Test on the controlling efficacy against gray mold of cucumber plant; conditions: cucumber (Suyou), foliar application, active ingredient 50 ppm, emulsion amount 50 ml, 7 days after inoculation

C[C@@H](Cc1ccc(Cl)cc1Cl)NC(=O)c1nccnc1C(F)(F)F [3-43-S]
10 (100% in protective value): controlling efficacy, criteria of judgment (protective value) [1] | controlling efficacy, criteria of judgment [2] | controlling efficacy, criteria of judgment (protective value) [3]

O=C(NCCc1ccc(Cl)cc1F)c1nccnc1C(F)(F)F [3-51]
10 (100% in protective value): controlling efficacy, criteria of judgment (protective value) [1] | controlling efficacy, criteria of judgment [2] | controlling efficacy, criteria of judgment (protective value) [3]

O=C(NCCc1ccc(OC(F)F)cc1Cl)c1nccnc1C(F)(F)F [3-53]
10 (100% in protective value): controlling efficacy, criteria of judgment (protective value) [1] | controlling efficacy, criteria of judgment [2] | controlling efficacy, criteria of judgment (protective value) [3]

CC(Cc1ccc(F)cc1F)NC(=O)c1nccnc1C(F)(F)F (stereo not drawn) [3-61]
10 (100% in protective value): controlling efficacy, criteria of judgment (protective value) [1] | controlling efficacy, criteria of judgment [2] | controlling efficacy, criteria of judgment (protective value) [3]

CC(Cc1ccc(Cl)cc1F)NC(=O)c1nccnc1C(F)(F)F (stereo not drawn) [3-62]
10 (100% in protective value): controlling efficacy, criteria of judgment (protective value) [1] | controlling efficacy, criteria of judgment [2] | controlling efficacy, criteria of judgment (protective value) [3]

CC(Cc1ccc(OC(F)F)cc1Cl)NC(=O)c1nccnc1C(F)(F)F (stereo not drawn) [3-64]
10 (100% in protective value): controlling efficacy, criteria of judgment (protective value) [1] | controlling efficacy, criteria of judgment [2] | controlling efficacy, criteria of judgment (protective value) [3]

CC(Cc1cc(F)c(F)cc1F)NC(=O)c1nccnc1C(F)(F)F (stereo not drawn) [3-75]
10 (100% in protective value): controlling efficacy, criteria of judgment (protective value) [1] | controlling efficacy, criteria of judgment [2] | controlling efficacy, criteria of judgment (protective value) [3]

CC(Cc1ccc(Cl)c(Cl)c1)NC(=O)c1nccnc1C(F)(F)F (stereo not drawn) [3-77]
10 (100% in protective value): controlling efficacy, criteria of judgment (protective value) [1] | controlling efficacy, criteria of judgment [2] | controlling efficacy, criteria of judgment (protective value) [3]

CC(Cc1cc(F)c(Cl)cc1F)NC(=O)c1nccnc1C(F)(F)F (stereo not drawn) [3-92]
10 (100% in protective value): controlling efficacy, criteria of judgment (protective value) [1] | controlling efficacy, criteria of judgment [2] | controlling efficacy, criteria of judgment (protective value) [3]

CC(Cc1cc(F)c(F)cc1Cl)NC(=O)c1nccnc1C(F)(F)F (stereo not drawn) [3-94]
10 (100% in protective value): controlling efficacy, criteria of judgment (protective value) [1] | controlling efficacy, criteria of judgment [2] | controlling efficacy, criteria of judgment (protective value) [3]

CC(Cc1cc(Cl)c(Cl)cc1F)NC(=O)c1nccnc1C(F)(F)F (stereo not drawn) [3-96]
10 (100% in protective value): controlling efficacy, criteria of judgment (protective value) [1] | controlling efficacy, criteria of judgment [2] | controlling efficacy, criteria of judgment (protective value) [3]

O=C(NCCc1cc(F)c(Cl)cc1Cl)c1nccnc1C(F)(F)F [3-102]
10 (100% in protective value): controlling efficacy, criteria of judgment (protective value) [1] | controlling efficacy, criteria of judgment [2] | controlling efficacy, criteria of judgment (protective value) [3]

CC(Cc1cc(F)c(Cl)cc1Cl)NC(=O)c1nccnc1C(F)(F)F (stereo not drawn) [3-103]
10 (100% in protective value): controlling efficacy, criteria of judgment (protective value) [1] | controlling efficacy, criteria of judgment [2] | controlling efficacy, criteria of judgment (protective value) [3]

O=C(NCCc1ccc(Cl)cc1Cl)c1nccnc1Cl [3′-5]
10 (100% in protective value): controlling efficacy, criteria of judgment (protective value) [1] | controlling efficacy, criteria of judgment [2] | controlling efficacy, criteria of judgment (protective value) [3]

Cc1cc(Cl)ccc1CCNC(=O)c1nccnc1Cl [3′-7]
10 (100% in protective value): controlling efficacy, criteria of judgment (protective value) [1] | controlling efficacy, criteria of judgment [2] | controlling efficacy, criteria of judgment (protective value) [3]

O=C(NCCc1ccc(C(F)(F)F)cc1F)c1nccnc1Cl [3′-11]
10 (100% in protective value): controlling efficacy, criteria of judgment (protective value) [1] | controlling efficacy, criteria of judgment [2] | controlling efficacy, criteria of judgment (protective value) [3]

CC(Cc1ccc(Cl)cc1Cl)NC(=O)c1cn(C)nc1C(F)(F)F (stereo not drawn) [5-21]
10 (100% in protective value): controlling efficacy, criteria of judgment (protective value) [1] | controlling efficacy, criteria of judgment [2] | controlling efficacy, criteria of judgment (protective value) [3]

Cc1nc(C)c(C(=O)NCCc2ccc(Cl)cc2Cl)s1 [6-1]
10 (100% in protective value): controlling efficacy, criteria of judgment (protective value) [1] | controlling efficacy, criteria of judgment [2] | controlling efficacy, criteria of judgment (protective value) [3]

Cc1nc(C)c(C(=O)NC(C)Cc2ccc(Cl)cc2Cl)s1 (stereo not drawn) [6-22]
10 (100% in protective value): controlling efficacy, criteria of judgment (protective value) [1] | controlling efficacy, criteria of judgment [2] | controlling efficacy, criteria of judgment (protective value) [3]

O=C(NCCc1cccc(C(F)(F)F)c1)c1nccnc1C(F)(F)F [compound No. 3-4]
10 (100% in protective value): controlling efficacy, criteria of judgment (protective value) [1] | controlling efficacy, criteria of judgment [2] | controlling efficacy, criteria of judgment (protective value) [3]

CC(Cc1ccc(Cl)cc1Cl)NC(=O)c1nccnc1C(F)(F)F (stereo not drawn) [compound No. 3-43, N-[2-(2,4-dichlorophenyl)-1-methylethyl]-2-trifluoromethylpyrazine-3-carboxamide]
10 (100% in protective value): controlling efficacy, criteria of judgment (protective value) [1] | controlling efficacy, criteria of judgment [2] | controlling efficacy, criteria of judgment (protective value) [3]
